Measurements reported in PubChem BioAssay AID652272 (Drosophila RNAi Screening Center, 2013)
In all, the deposit lists about 21,000 reagents; this is an unselected part of those that have a named target and a result. In the full data, 503 (2.4%) got an active call. 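Raw plate light values, not normalised; calls rest on replicate z-scores that were not deposited; hits include reporter decreases as well as increases.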 Not stated in the record: the amount of reagent, the time to read-out.

Aim: 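Genome-wide knock-down search for components of Hedgehog signalling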 (primary screen)
System: Drosophila clone 8 (Cl8) cells
Reagents: long dsRNA against Drosophila genes
Measured: 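Plate reader light from a firefly reporter under a ptc promoter fragment that responds to Hedgehog, with Renilla light as transfection reference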
Reading the numbers: firefly Hh reporter signal: higher = more ptc reporter light; Renilla reference signal: higher = more Renilla control light
Rule for the call: 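Hit when the z-score averaged over two replicates is under -2 or over +3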
Meaning of the calls: active = hit: reporter lowered or raised; inactive = not a hit

| gene | dsRNA | firefly Hh reporter signal, replicate 1 | firefly Hh reporter signal, replicate 2 | firefly Hh reporter signal, replicate 3 | Renilla reference signal, replicate 1 | Renilla reference signal, replicate 2 | activity call |
| --- | --- | --- | --- | --- | --- | --- | --- |
| Trs20 (GeneID 39769) | DRSC10489 | 79318 | – | – | 2212 | 2264 | inactive |
| CG11550 (GeneID 43731) | DRSC14326 | 77237 | 2.30e5 | – | 2984 | 8986 | inactive |
| CG15461 (GeneID 50122) | DRSC20532 | 73719 | 2.55e5 | – | 2529 | 10345 | inactive |
| Smyd5 (GeneID 42517) | DRSC15483 | 4.94e5 | 81035 | – | 27388 | 377 | inactive |
| Art3 (GeneID 41837) | DRSC16065 | 1.42e5 | 91532 | – | 5440 | 3568 | inactive |
| lectin-46Ca (GeneID 53523) | DRSC06612 | 90581 | 7.53e5 | 79450 | 3437 | 41593 | inactive |
| CG9287 (GeneID 34194) | DRSC03186 | 1.47e5 | 5.95e5 | 85954 | 3541 | 36080 | inactive |
| CG31141 (GeneID 318605) | DRSC13646 | 49156 | 2.52e5 | – | 12278 | 5911 | inactive |
| CG8329 (GeneID 39123) | DRSC10978 | 1.56e5 | 98604 | – | 6002 | 4225 | inactive |
| CG6231 (GeneID 42339) | DRSC15997 | 5.58e5 | 1.03e5 | – | 28726 | 2949 | inactive |
| Su(var)2-HP2 (GeneID 36621) | DRSC06204 | 1.03e5 | 53537 | – | 5099 | 2541 | inactive |
| CG11586 (GeneID 38520) | DRSC08203 | 2.07e5 | 1.65e5 | – | 7865 | 5669 | inactive |
| Remo (GeneID 2768909) | DRSC19710 | 81921 | 1.89e5 | – | 944 | 6470 | inactive |
| CG30286 (GeneID 246529) | DRSC04070 | 71914 | 73288 | – | 2353 | 6644 | inactive |
| Chd3 (GeneID 40111) | DRSC11114 | 98695 | 1.22e5 | – | 4379 | 2385 | inactive |
| CG13160 (GeneID 36343) | DRSC06284 | 82306 | 50528 | – | 2329 | 3656 | inactive |
| CG18004 (GeneID 36154) | DRSC06705 | 2.07e5 | 1.13e5 | – | 6008 | 2965 | inactive |
| pn (GeneID 31194) | DRSC18822 | 1.05e5 | 85880 | – | 2560 | 2742 | inactive |
| Osi20 (GeneID 40777) | DRSC12568 | 83275 | 1.68e5 | – | 2629 | 4112 | inactive |
| CG11322 (GeneID 33949) | DRSC02142 | 1.68e5 | 79826 | – | 4167 | 8176 | inactive |
| Noc3 (GeneID 40870) | DRSC12535 | 62064 | 39353 | – | 3141 | 1993 | inactive |

A run of entries from the list above:
| gene | dsRNA | firefly Hh reporter signal, replicate 1 | firefly Hh reporter signal, replicate 2 | firefly Hh reporter signal, replicate 3 | Renilla reference signal, replicate 1 | Renilla reference signal, replicate 2 | activity call |
| --- | --- | --- | --- | --- | --- | --- | --- |
| Remo (GeneID 2768909) | DRSC19710 | 81921 | 1.89e5 | – | 944 | 6470 | inactive |
| CG30286 (GeneID 246529) | DRSC04070 | 71914 | 73288 | – | 2353 | 6644 | inactive |
| Chd3 (GeneID 40111) | DRSC11114 | 98695 | 1.22e5 | – | 4379 | 2385 | inactive |
| CG13160 (GeneID 36343) | DRSC06284 | 82306 | 50528 | – | 2329 | 3656 | inactive |
| CG18004 (GeneID 36154) | DRSC06705 | 2.07e5 | 1.13e5 | – | 6008 | 2965 | inactive |

The list goes on:
| gene | dsRNA | firefly Hh reporter signal, replicate 1 | firefly Hh reporter signal, replicate 2 | firefly Hh reporter signal, replicate 3 | Renilla reference signal, replicate 1 | Renilla reference signal, replicate 2 | activity call |
| --- | --- | --- | --- | --- | --- | --- | --- |
| CG13247 (GeneID 40247) | DRSC11695 | 1.37e5 | 1.16e5 | – | 4469 | 3184 | inactive |
| DnaJ-1 (GeneID 38643) | DRSC11145 | 69872 | 69316 | – | 3510 | 2882 | inactive |
| Ucp4A (GeneID 32764) | DRSC19996 | 1.31e5 | 4.18e5 | – | 4484 | 16538 | inactive |
| CG4009 (GeneID 42054) | DRSC15536 | 81280 | 89794 | – | 2789 | 2177 | inactive |
| CG14717 (GeneID 41412) | DRSC14940 | 65546 | 71132 | – | 2034 | 1888 | inactive |
| CG11141 (GeneID 35672) | DRSC06048 | 1.42e5 | 90827 | – | 5393 | 2848 | inactive |
| Ctl2 (GeneID 43440) | DRSC14423 | 87957 | 81301 | – | 2201 | 2204 | inactive |
| CG5103 (GeneID 40012) | DRSC10481 | 1.46e5 | – | – | 1841 | 3745 | inactive |
| Hmx (GeneID 42110) | DRSC15307 | 84749 | 79200 | – | 2809 | 583 | inactive |
| Hmx (GeneID 42110) | DRSC15884 | 1.32e5 | 1.70e5 | – | 1946 | 3420 | inactive |
| Hmx (GeneID 42110) | DRSC16706 | 95840 | 80007 | – | 2085 | 486 | inactive |
| Lkr (GeneID 38622) | DRSC09754 | 26704 | 62794 | – | 5280 | 4676 | inactive |
| ZnT41F (GeneID 35513) | DRSC04850 | 1.19e5 | 72880 | – | 4512 | 2756 | inactive |
| Inx7 (GeneID 33027) | DRSC18784 | 65168 | 2.55e5 | – | 2706 | 9008 | inactive |
| Mks1 (GeneID 32200) | DRSC19697 | 95833 | 1.63e5 | – | 2776 | 7584 | inactive |
| alpha-Est8 (GeneID 40899) | DRSC12620 | 55899 | 79636 | – | 1963 | 2789 | inactive |
| wapl (GeneID 31187) | DRSC18851 | 1.26e5 | 93987 | – | 2864 | 2733 | inactive |
| CG13116 (GeneID 34288) | DRSC02214 | 1.74e5 | 6.11e5 | 1.46e5 | 4333 | 34717 | inactive |
